Key:
soybean explants [1] = assay: Soybean explant feeding with 50 mM free cyclitols for one week, soluble carbohydrates in mature seeds; type: in vivo, Glycine max (L.) Merrill cv. Chippewa 64
soybean explants [2] = assay: Soybean explant feeding 3 days with 50 mM cyclitol in 1% sucrose, slow drying time course, soluble carbohydrates in axis, cotyledon, seed coat and leaf
[3] = 3 days transport of sucrose (1%) and D-chiro-inositol (50 mM), after 2 days slow drying, Rep 1
[4] = 3 days transport of sucrose (1%) and D-chiro-inositol (50 mM), after 2 days slow drying, Rep 2
[5] = 3 days transport of sucrose (1%) and D-chiro-inositol (50 mM), after 4 days slow drying, Rep 1
[6] = 3 days transport of sucrose (1%) and D-chiro-inositol (50 mM), after 4 days slow drying, Rep 2
[7] = 3 days transport of sucrose (1%) and D-chiro-inositol (50 mM), after 14 days slow drying, Rep 1
[8] = 3 days transport of sucrose (1%) and D-chiro-inositol (50 mM), after 14 days slow drying, Rep 2
[9] = 3 days transport of sucrose (1%) and D-chiro-inositol (50 mM), before slow drying, Rep 1
[10] = 3 days transport of sucrose (1%) and D-chiro-inositol (50 mM), before slow drying, Rep 2
[11] = 3 days transport of sucrose (1%) and D-pinitol (50 mM), after 2 days slow drying, Rep 1
[12] = 3 days transport of sucrose (1%) and D-pinitol (50 mM), after 2 days slow drying, Rep 2
[13] = 3 days transport of sucrose (1%) and D-pinitol (50 mM), after 4 days slow drying, Rep 1
[14] = 3 days transport of sucrose (1%) and D-pinitol (50 mM), after 4 days slow drying, Rep 2
[15] = 3 days transport of sucrose (1%) and D-pinitol (50 mM), after 14 days slow drying, Rep 1
[16] = 3 days transport of sucrose (1%) and D-pinitol (50 mM), after 14 days slow drying, Rep 2
[17] = 3 days transport of sucrose (1%) and D-pinitol (50 mM), before slow drying, Rep 1
[18] = 3 days transport of sucrose (1%) and D-pinitol (50 mM), before slow drying, Rep 2
[19] = 3 days transport of sucrose (1%) and myo-inositol (50 mM), after 2 days slow drying, Rep 1
[20] = 3 days transport of sucrose (1%) and myo-inositol (50 mM), after 2 days slow drying, Rep 2
[21] = 3 days transport of sucrose (1%) and myo-inositol (50 mM), after 4 days slow drying, Rep 1
[22] = 3 days transport of sucrose (1%) and myo-inositol (50 mM), after 4 days slow drying, Rep 2
[23] = 3 days transport of sucrose (1%) and myo-inositol (50 mM), after 14 days slow drying, Rep 1
[24] = 3 days transport of sucrose (1%) and myo-inositol (50 mM), after 14 days slow drying, Rep 2
[25] = 3 days transport of sucrose (1%) and myo-inositol (50 mM), before slow drying, Rep 1
[26] = 3 days transport of sucrose (1%) and myo-inositol (50 mM), before slow drying, Rep 2
[27] = 3 days transport of sucrose (1%) without cyclitols, after 2 days slow drying, Rep 1
[28] = 3 days transport of sucrose (1%) without cyclitols, after 2 days slow drying, Rep 2
[29] = 3 days transport of sucrose (1%) without cyclitols, after 4 days slow drying, Rep 1
[30] = 3 days transport of sucrose (1%) without cyclitols, after 4 days slow drying, Rep 2
[31] = 3 days transport of sucrose (1%) without cyclitols, after 14 days slow drying, Rep 1
[32] = 3 days transport of sucrose (1%) without cyclitols, after 14 days slow drying, Rep 2
[33] = 3 days transport of sucrose (1%) without cyclitols, before slow drying, Rep 1
[34] = 3 days transport of sucrose (1%) without cyclitols, before slow drying, Rep 2

With `CO[C@H]1[C@H](O)[C@@H](O[C@H]2O[C@H](CO[C@H]3O[C@H](CO)[C@H](O)[C@H](O)[C@H]3O)[C@H](O)[C@H](O)[C@H]2O)[C@@H](O)[C@H](O)[C@@H]1O` [Ciceritol, ciceritol] the “change after feeding D-pinitol to explants” value (soybean explants [1]; axis tissue) was “doubled”, the “increase after feeding D-pinitol to explants” value (soybean explants [1]; cotyledon tissue) was 30% and the “Accumulation of soluble carbohydrates in soybean axis” value (from here on “Accumulation … in soybean axis”) (soybean explants [2]; [3]) was 0 μg/axis. For the same molecule, the “Accumulation of soluble carbohydrates in soybean cotyledon” value (soybean explants [2]; [3]) was 13.35 μg/cotyledon, the “Accumulation of soluble carbohydrates in soybean seed coat” value (soybean explants [2]; [3]) was 0 μg/seed coat and the “Accumulation … in soybean axis” value (soybean explants [2]; [4]) was 0 μg/axis. The “Accumulation of soluble carbohydrates in soybean cotyledon” value (soybean explants [2]; [4]) was 0 μg/cotyledon, the “Accumulation of soluble carbohydrates in soybean seed coat” value (soybean explants [2]; [4]) was 0 μg/seed coat and the “Accumulation … in soybean axis” value (soybean explants [2]; [5]) was 0 μg/axis. The “Accumulation of soluble carbohydrates in soybean cotyledon” value (soybean explants [2]; [5]) was 12.69 μg/cotyledon, the “Accumulation of soluble carbohydrates in soybean seed coat” value (soybean explants [2]; [5]) was 0 μg/seed coat and the “Accumulation … in soybean axis” value (soybean explants [2]; [6]) was 0.27 μg/axis. For the same molecule, the “Accumulation of soluble carbohydrates in soybean cotyledon” value (soybean explants [2]; [6]) was 0 μg/cotyledon, the “Accumulation of soluble carbohydrates in soybean seed coat” value (soybean explants [2]; [6]) was 0 μg/seed coat and the “Accumulation … in soybean axis” value (soybean explants [2]; [7]) was 0 μg/axis. For the same molecule, the “Accumulation of soluble carbohydrates in soybean cotyledon” value (soybean explants [2]; [7]) was 3.82 μg/cotyledon, the “Accumulation of soluble carbohydrates in soybean seed coat” value (soybean explants [2]; [7]) was 0 μg/seed coat and the “Accumulation … in soybean axis” value (soybean explants [2]; [8]) was 2.69 μg/axis. For the same molecule, the “Accumulation of soluble carbohydrates in soybean cotyledon” value (soybean explants [2]; [8]) was 2.83 μg/cotyledon, the “Accumulation of soluble carbohydrates in soybean seed coat” value (soybean explants [2]; [8]) was 0 μg/seed coat and the “Accumulation … in soybean axis” value (soybean explants [2]; [9]) was 0 μg/axis. For the same molecule, the “Accumulation of soluble carbohydrates in soybean cotyledon” value (soybean explants [2]; [9]) was 0 μg/cotyledon, the “Accumulation … in soybean axis” value (soybean explants [2]; [10]) was 0 μg/axis and the “Accumulation of soluble carbohydrates in soybean cotyledon” value (soybean explants [2]; [10]) was 6.06 μg/cotyledon. The “Accumulation … in soybean axis” value (soybean explants [2]; [11]) was 0 μg/axis, the “Accumulation of soluble carbohydrates in soybean cotyledon” value (soybean explants [2]; [11]) was 0 μg/cotyledon and the “Accumulation of soluble carbohydrates in soybean seed coat” value (soybean explants [2]; [11]) was 0 μg/seed coat. For the same molecule, the “Accumulation … in soybean axis” value (soybean explants [2]; [12]) was 0.80 μg/axis, the “Accumulation of soluble carbohydrates in soybean cotyledon” value (soybean explants [2]; [12]) was 2.47 μg/cotyledon and the “Accumulation of soluble carbohydrates in soybean seed coat” value (soybean explants [2]; [12]) was 0 μg/seed coat. For the same molecule, the “Accumulation … in soybean axis” value (soybean explants [2]; [13]) was 0.89 μg/axis, the “Accumulation of soluble carbohydrates in soybean cotyledon” value (soybean explants [2]; [13]) was 0 μg/cotyledon and the “Accumulation of soluble carbohydrates in soybean seed coat” value (soybean explants [2]; [13]) was 0 μg/seed coat. The “Accumulation … in soybean axis” value (soybean explants [2]; [14]) was 0.56 μg/axis, the “Accumulation of soluble carbohydrates in soybean cotyledon” value (soybean explants [2]; [14]) was 3.32 μg/cotyledon and the “Accumulation of soluble carbohydrates in soybean seed coat” value (soybean explants [2]; [14]) was 0 μg/seed coat. The “Accumulation … in soybean axis” value (soybean explants [2]; [15]) was 1.42 μg/axis, the “Accumulation of soluble carbohydrates in soybean cotyledon” value (soybean explants [2]; [15]) was 4.88 μg/cotyledon and the “Accumulation of soluble carbohydrates in soybean seed coat” value (soybean explants [2]; [15]) was 0 μg/seed coat. The “Accumulation … in soybean axis” value (soybean explants [2]; [16]) was 1.43 μg/axis, the “Accumulation of soluble carbohydrates in soybean cotyledon” value (soybean explants [2]; [16]) was 4.85 μg/cotyledon and the “Accumulation of soluble carbohydrates in soybean seed coat” value (soybean explants [2]; [16]) was 0 μg/seed coat. The “Accumulation … in soybean axis” value (soybean explants [2]; [17]) was 0 μg/axis, the “Accumulation of soluble carbohydrates in soybean cotyledon” value (soybean explants [2]; [17]) was 0 μg/cotyledon and the “Accumulation … in soybean axis” value (soybean explants [2]; [18]) was 0 μg/axis. The “Accumulation of soluble carbohydrates in soybean cotyledon” value (soybean explants [2]; [18]) was 0 μg/cotyledon, the “Accumulation … in soybean axis” value (soybean explants [2]; [19]) was 0 μg/axis and the “Accumulation of soluble carbohydrates in soybean cotyledons” value (“Accumulation … in soybean cotyledons” for short) (soybean explants [2]; [19]) was 0 μg/cotyledon. For the same molecule, the “Accumulation of soluble carbohydrates in soybean seed coats” value (shortened to “Accumulation … in soybean seed coats”) (soybean explants [2]; [19]) was 0 μg/seed coat, the “Accumulation … in soybean axis” value (soybean explants [2]; [20]) was 0 μg/axis and the “Accumulation … in soybean cotyledons” value (soybean explants [2]; [20]) was 0 μg/cotyledon. For the same molecule, the “Accumulation … in soybean seed coats” value (soybean explants [2]; [20]) was 0 μg/seed coat, the “Accumulation … in soybean axis” value (soybean explants [2]; [21]) was 0.39 μg/axis and the “Accumulation … in soybean cotyledons” value (soybean explants [2]; [21]) was 0 μg/cotyledon. The “Accumulation … in soybean axis” value (soybean explants [2]; [22]) was 0.42 μg/axis, the “Accumulation … in soybean cotyledons” value (soybean explants [2]; [22]) was 0 μg/cotyledon and the “Accumulation … in soybean seed coats” value (soybean explants [2]; [22]) was 0 μg/seed coat. For the same molecule, the “Accumulation … in soybean axis” value (soybean explants [2]; [23]) was 0.56 μg/axis, the “Accumulation … in soybean cotyledons” value (soybean explants [2]; [23]) was 2.01 μg/cotyledon and the “Accumulation … in soybean seed coats” value (soybean explants [2]; [23]) was 0 μg/seed coat. For the same molecule, the “Accumulation … in soybean axis” value (soybean explants [2]; [24]) was 0.29 μg/axis, the “Accumulation … in soybean cotyledons” value (soybean explants [2]; [24]) was 0 μg/cotyledon and the “Accumulation … in soybean seed coats” value (soybean explants [2]; [24]) was 0 μg/seed coat. The “Accumulation … in soybean axis” value (soybean explants [2]; [25]) was “Tr”, the “Accumulation … in soybean cotyledons” value (soybean explants [2]; [25]) was 0 μg/cotyledon and the “Accumulation … in soybean axis” value (soybean explants [2]; [26]) was 0 μg/axis. For the same molecule, the “Accumulation … in soybean cotyledons” value (soybean explants [2]; [26]) was 0 μg/cotyledon, the “Accumulation … in soybean axis” value (soybean explants [2]; [27]) was 0.01 μg/axis and the “Accumulation of soluble carbohydrates in soybean cotyledon” value (soybean explants [2]; [27]) was 1.63 μg/cotyledon. The “Accumulation … in soybean seed coats” value (soybean explants [2]; [27]) was 0 μg/seed coat, the “Accumulation … in soybean axis” value (soybean explants [2]; [28]) was 0.07 μg/axis and the “Accumulation of soluble carbohydrates in soybean cotyledon” value (soybean explants [2]; [28]) was 0 μg/cotyledon. The “Accumulation … in soybean seed coats” value (soybean explants [2]; [28]) was 0 μg/seed coat, the “Accumulation … in soybean axis” value (soybean explants [2]; [29]) was 0.80 μg/axis and the “Accumulation of soluble carbohydrates in soybean cotyledon” value (soybean explants [2]; [29]) was 1.79 μg/cotyledon. For the same molecule, the “Accumulation … in soybean seed coats” value (soybean explants [2]; [29]) was 0 μg/seed coat, the “Accumulation … in soybean axis” value (soybean explants [2]; [30]) was 0.71 μg/axis and the “Accumulation of soluble carbohydrates in soybean cotyledon” value (soybean explants [2]; [30]) was 2.22 μg/cotyledon. The “Accumulation … in soybean seed coats” value (soybean explants [2]; [30]) was 0 μg/seed coat, the “Accumulation … in soybean axis” value (soybean explants [2]; [31]) was 0.94 μg/axis and the “Accumulation of soluble carbohydrates in soybean cotyledon” value (soybean explants [2]; [31]) was 10.22 μg/cotyledon. For the same molecule, the “Accumulation … in soybean seed coats” value (soybean explants [2]; [31]) was 0 μg/seed coat, the “Accumulation … in soybean axis” value (soybean explants [2]; [32]) was 0.63 μg/axis and the “Accumulation of soluble carbohydrates in soybean cotyledon” value (soybean explants [2]; [32]) was 4.63 μg/cotyledon. The “Accumulation … in soybean seed coats” value (soybean explants [2]; [32]) was 0 μg/seed coat, the “Accumulation … in soybean axis” value (soybean explants [2]; [33]) was 0 μg/axis and the “Accumulation of soluble carbohydrates in soybean cotyledon” value (soybean explants [2]; [33]) was 0 μg/cotyledon. The “Accumulation … in soybean axis” value (soybean explants [2]; [34]) was 0 μg/axis and the “Accumulation of soluble carbohydrates in soybean cotyledon” value (soybean explants [2]; [34]) was 0 μg/cotyledon.

— patent US9926581B2, “Fagopyritol synthase genes and uses thereof” (Cornell Research Foundation, Inc., priority 2002, dated 2018)
